Where “and” joins values, the source holds several entries; their conditions need not be identical. Identical values can stand only once. The list shows a part of the results. These are further read-outs of the screen, such as a control signal, another cell line or another target. No call is given for them. Compounds called inactive in the main read-out are mostly missing here. Potencies come from curve fits of mixed quality, noted in brackets.
Assay: IkB Signaling
Conditions: ABC-DLBCL IkBa-CBG/CBR dual luciferase ratio (green luciferase fused to IkBa over red control in OCI-Ly3 lymphoma cells), 4 h
In short: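 Luminescence ratio of IκBα-fused green versus native red beetle luciferase in OCI-Ly3 cells, 4 h post-doxycycline with compound; red signal alone, scaled from basal (0%) to zero light (-100%), flagged nonspecific or cytotoxic effects.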

[1] = measured here: control luc red channel
[2] = measured here: IkB-luc green channel

COc1ccc(OC)c(NC(=O)Cn2cc(C(=O)c3ccccc3)c3ccccc32)c1
AC50 [1]: 6.31 µM [falling, full curve]

COc1ccc(-c2nc(CN3C(=O)CN=C(c4ccccc4)c4cc(Cl)ccc43)c(C)o2)cc1
AC50 [1]: 25.1 µM [falling, single point]

Nc1c(C(=O)NCCc2ccccc2)c2nc3ccccc3nc2n1CCN1CCOCC1
AC50 [1]: 12.6 µM [falling, partial curve]

CN1Cc2c(ccc3c2OCO3)[C@@H]2[C@@H](O)Cc3cc4c(cc3[C@@H]21)OCO4
AC50 [2]: 3.16 µM [rising, full curve] and 3.16 µM [rising, partial curve] | AC50 [1]: 3.16 µM [rising, full curve, poor fit]

O=C(Nc1ccc2c(c1)OCCO2)c1cccn(Cc2cccc(F)c2)c1=O
AC50 [1]: 20 µM [falling, partial curve]

O=[N+]([O-])c1cc(O)c(O)c([N+](=O)[O-])c1
AC50 [1]: 15.8 µM [rising, single point]

CC(C)OCCCNC(=O)c1c(N)n(CC2CCCO2)c2nc3ccccc3nc12 (stereo not drawn)
AC50 [1]: 12.6 µM [falling, partial curve]

CN[C@@H]1C[C@@H](c2ccc(Cl)c(Cl)c2)c2ccccc21
AC50 [2]: 25.1 µM [falling, partial curve, poor fit]

O=C(Nc1ccc(Cl)cc1C(=O)c1ccccc1)c1ccccc1Br
AC50 [1]: 39.8 µM [falling, single point]

COc1cc(C(c2c(O)c3ccccc3oc2=O)c2c(C)n(C)n(-c3ccccc3)c2=O)ccc1OCC(=O)O (stereo not drawn)
AC50 [1]: 5.01 µM [falling, full curve]

Cc1c(Cl)cccc1NC(=O)CN1C(=O)C(C)N=C(c2ccccc2)c2ccccc21 (stereo not drawn)
AC50 [1]: 15.8 µM [falling, single point]

CC1CN=C(Nc2cccc3ccccc23)S1 (stereo not drawn)
AC50 [1]: 15.8 µM [falling, partial curve]

CCOC(=O)c1c(-c2ccc(OC)cc2)oc2ccc(OC(=O)N(C)C)cc12
AC50 [1]: 12.6 µM [falling, partial curve]

O=C(Nc1ccc2c(c1)OCO2)c1cccn(Cc2cccc(F)c2)c1=O
AC50 [1]: 20 µM [falling, partial curve]

Cc1ccc(Cn2nnnc2CN2CCC(n3nnc4cc(C(F)(F)F)ccc43)CC2)cc1
AC50 [1]: 31.6 µM [falling, partial curve]

Cn1cc(/C=C/c2nc3ccccc3c(=O)n2-c2ccccc2)c2ccccc21
AC50 [1]: 7.94 µM [falling, partial curve]

Nc1c(C(=O)Nc2ccc(Cl)cc2)sc2nc3c(cc12)N1CCC3CC1
AC50 [1]: 10 µM [falling, partial curve]

Reference: PubChem BioAssay AID445 (National Center for Advancing Translational Sciences (NCATS), 2006)
